Results on 1 compound are retold here after article PMC9015526, “Mass Spectrometric Assays Reveal Discrepancies in Inhibition Profiles for the SARS‐CoV‐2 Papain‐Like Protease” (Chemmedchem, 2022).

In this experiment the target is SARS‐CoV‐2 PL^pro (Severe acute respiratory syndrome coronavirus 2, UniProt P0DTD1). It is filed as biochemical.

In the case of `COc1cc2ncnc(Nc3ccc(F)c(Cl)c3)c2cc1OCCCN1CCOCC1` [gefitinib], the “PL^pro inhibition in SPE‐MS assay (in words)” value is “inactive”.
